Measurements taken from patent publication US20180030118A1.
These are yes or no findings as the source states them, for the method shown. Some entries that bind do so weakly or less than the wild type.

Protein sequences, listed by entry. Tags and fused reporters are not part of them. Residues count along the entry.
UniProt Q1PD50, residues 19-648: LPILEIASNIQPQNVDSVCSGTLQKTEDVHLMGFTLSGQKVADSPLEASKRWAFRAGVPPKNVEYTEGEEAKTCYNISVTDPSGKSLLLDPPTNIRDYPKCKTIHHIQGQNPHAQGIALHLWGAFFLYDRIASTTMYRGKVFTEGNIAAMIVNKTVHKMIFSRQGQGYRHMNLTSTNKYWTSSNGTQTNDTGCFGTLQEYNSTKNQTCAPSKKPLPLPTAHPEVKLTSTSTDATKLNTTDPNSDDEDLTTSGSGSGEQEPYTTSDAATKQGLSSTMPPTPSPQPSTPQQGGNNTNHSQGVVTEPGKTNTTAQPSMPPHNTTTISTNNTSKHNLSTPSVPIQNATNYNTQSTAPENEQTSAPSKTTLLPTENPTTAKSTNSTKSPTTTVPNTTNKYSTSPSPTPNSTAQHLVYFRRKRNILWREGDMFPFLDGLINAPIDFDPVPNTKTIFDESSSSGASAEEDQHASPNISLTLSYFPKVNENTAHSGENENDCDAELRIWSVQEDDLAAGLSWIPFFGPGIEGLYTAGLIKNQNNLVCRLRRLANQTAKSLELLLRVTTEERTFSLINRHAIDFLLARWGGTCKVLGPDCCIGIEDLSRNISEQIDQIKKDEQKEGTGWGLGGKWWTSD

Biological target: MARV Angola GPe (Marburg virus, strain Angola) (UniProt Q1PD50)
Experiment: ELISA on coated GPe

B1: muCAN40G1 (antibody, V domains shown)
VH: EVQLQQSGPELVKPGASVKISCRTSGYTFTEYTIHWVKQSRGKSLEWIGGINPNHGGTLYNQKFKVKATLTVDKSSSTAYMELRSLTSEDSAVYYCARFTYDYWGQGTTLTVSS
VL: DIVLTQSPASLAVSLGQRASISCKASQSVDHDGDSYMNWYQQKPGQPPKLLIYATSNLESGIPARFSGSGSGTDFTLNIHPVEEEDAATYYCQQSYEVPLTFGAGTKLELK
  binding: binds
